# Assay results as given in the supplement of paper PMC12819154, “High-throughput peptide-centric local stability assay extends protein–ligand identification to membrane proteins, tissues and bacteria” (Nature Structural & Molecular Biology, 2025).
# Amino acid sequences for entries named in this document (tags omitted). A change or cut given only in a name is not applied to a line headed by its entry.
# UniProt Q6P3S6: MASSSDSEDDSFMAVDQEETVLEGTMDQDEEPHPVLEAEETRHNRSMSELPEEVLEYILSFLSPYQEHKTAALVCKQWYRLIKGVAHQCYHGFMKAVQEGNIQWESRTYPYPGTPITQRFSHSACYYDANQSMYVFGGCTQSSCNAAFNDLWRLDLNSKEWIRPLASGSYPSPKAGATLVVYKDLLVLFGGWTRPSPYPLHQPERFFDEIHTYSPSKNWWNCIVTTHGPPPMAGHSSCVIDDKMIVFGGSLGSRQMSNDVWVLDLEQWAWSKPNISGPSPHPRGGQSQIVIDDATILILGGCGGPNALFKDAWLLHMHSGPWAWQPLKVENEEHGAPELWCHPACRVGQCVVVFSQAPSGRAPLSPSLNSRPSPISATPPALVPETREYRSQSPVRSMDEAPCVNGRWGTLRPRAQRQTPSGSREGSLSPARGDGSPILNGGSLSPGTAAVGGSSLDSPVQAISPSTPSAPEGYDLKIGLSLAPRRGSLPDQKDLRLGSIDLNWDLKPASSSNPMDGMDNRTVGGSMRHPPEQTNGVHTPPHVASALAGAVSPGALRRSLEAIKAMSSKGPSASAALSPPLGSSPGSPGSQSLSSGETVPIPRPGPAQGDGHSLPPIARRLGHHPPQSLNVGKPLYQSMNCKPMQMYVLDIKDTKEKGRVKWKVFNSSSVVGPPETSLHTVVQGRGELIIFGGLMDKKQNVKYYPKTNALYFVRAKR
# UniProt Q6UB35, whole entry: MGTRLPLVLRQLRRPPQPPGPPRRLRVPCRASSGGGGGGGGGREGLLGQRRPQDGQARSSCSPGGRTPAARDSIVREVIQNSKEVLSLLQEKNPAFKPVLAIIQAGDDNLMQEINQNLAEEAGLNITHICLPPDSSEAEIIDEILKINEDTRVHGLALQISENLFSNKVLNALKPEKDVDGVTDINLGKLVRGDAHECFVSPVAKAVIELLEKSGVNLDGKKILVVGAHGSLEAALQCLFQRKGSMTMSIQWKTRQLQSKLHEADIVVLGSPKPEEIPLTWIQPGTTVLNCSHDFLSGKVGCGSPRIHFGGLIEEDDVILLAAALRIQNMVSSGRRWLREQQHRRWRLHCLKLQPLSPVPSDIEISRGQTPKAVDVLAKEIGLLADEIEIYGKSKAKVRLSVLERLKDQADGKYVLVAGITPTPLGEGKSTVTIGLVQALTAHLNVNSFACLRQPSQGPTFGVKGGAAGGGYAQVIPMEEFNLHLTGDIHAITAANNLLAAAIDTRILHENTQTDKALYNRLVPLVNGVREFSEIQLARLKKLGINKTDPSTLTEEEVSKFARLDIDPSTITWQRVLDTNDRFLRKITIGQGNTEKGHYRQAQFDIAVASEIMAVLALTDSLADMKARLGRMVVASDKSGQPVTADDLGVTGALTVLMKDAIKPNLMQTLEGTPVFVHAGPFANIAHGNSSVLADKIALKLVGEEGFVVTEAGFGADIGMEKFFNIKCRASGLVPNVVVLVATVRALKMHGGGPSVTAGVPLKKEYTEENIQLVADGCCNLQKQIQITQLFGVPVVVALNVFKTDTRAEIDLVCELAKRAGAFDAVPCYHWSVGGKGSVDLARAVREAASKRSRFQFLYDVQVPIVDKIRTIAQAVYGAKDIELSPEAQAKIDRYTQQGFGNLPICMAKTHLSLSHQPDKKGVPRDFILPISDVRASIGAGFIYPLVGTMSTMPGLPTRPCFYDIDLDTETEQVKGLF
# UniProt Q6NWY9: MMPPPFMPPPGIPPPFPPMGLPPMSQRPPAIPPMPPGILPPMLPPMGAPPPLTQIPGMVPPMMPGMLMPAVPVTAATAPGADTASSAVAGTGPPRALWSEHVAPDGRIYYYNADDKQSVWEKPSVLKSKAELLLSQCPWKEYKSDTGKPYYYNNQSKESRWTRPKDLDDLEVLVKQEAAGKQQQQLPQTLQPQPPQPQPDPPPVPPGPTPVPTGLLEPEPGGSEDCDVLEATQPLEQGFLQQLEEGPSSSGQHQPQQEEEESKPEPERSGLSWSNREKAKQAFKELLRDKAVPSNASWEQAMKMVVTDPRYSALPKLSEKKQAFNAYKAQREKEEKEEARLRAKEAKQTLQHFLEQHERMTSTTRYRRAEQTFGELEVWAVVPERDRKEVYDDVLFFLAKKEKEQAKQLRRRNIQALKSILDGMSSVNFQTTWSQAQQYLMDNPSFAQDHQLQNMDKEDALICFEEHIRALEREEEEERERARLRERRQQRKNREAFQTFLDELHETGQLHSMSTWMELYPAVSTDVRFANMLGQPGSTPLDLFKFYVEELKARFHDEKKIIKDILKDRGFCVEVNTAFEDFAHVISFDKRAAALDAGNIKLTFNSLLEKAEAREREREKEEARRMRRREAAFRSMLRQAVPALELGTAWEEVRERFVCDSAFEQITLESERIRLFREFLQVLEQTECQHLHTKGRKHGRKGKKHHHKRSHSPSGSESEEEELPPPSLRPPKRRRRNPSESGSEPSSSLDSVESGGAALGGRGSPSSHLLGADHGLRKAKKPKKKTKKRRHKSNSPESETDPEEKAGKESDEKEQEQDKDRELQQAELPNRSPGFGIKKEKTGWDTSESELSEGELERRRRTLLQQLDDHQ
# UniProt Q6DT37: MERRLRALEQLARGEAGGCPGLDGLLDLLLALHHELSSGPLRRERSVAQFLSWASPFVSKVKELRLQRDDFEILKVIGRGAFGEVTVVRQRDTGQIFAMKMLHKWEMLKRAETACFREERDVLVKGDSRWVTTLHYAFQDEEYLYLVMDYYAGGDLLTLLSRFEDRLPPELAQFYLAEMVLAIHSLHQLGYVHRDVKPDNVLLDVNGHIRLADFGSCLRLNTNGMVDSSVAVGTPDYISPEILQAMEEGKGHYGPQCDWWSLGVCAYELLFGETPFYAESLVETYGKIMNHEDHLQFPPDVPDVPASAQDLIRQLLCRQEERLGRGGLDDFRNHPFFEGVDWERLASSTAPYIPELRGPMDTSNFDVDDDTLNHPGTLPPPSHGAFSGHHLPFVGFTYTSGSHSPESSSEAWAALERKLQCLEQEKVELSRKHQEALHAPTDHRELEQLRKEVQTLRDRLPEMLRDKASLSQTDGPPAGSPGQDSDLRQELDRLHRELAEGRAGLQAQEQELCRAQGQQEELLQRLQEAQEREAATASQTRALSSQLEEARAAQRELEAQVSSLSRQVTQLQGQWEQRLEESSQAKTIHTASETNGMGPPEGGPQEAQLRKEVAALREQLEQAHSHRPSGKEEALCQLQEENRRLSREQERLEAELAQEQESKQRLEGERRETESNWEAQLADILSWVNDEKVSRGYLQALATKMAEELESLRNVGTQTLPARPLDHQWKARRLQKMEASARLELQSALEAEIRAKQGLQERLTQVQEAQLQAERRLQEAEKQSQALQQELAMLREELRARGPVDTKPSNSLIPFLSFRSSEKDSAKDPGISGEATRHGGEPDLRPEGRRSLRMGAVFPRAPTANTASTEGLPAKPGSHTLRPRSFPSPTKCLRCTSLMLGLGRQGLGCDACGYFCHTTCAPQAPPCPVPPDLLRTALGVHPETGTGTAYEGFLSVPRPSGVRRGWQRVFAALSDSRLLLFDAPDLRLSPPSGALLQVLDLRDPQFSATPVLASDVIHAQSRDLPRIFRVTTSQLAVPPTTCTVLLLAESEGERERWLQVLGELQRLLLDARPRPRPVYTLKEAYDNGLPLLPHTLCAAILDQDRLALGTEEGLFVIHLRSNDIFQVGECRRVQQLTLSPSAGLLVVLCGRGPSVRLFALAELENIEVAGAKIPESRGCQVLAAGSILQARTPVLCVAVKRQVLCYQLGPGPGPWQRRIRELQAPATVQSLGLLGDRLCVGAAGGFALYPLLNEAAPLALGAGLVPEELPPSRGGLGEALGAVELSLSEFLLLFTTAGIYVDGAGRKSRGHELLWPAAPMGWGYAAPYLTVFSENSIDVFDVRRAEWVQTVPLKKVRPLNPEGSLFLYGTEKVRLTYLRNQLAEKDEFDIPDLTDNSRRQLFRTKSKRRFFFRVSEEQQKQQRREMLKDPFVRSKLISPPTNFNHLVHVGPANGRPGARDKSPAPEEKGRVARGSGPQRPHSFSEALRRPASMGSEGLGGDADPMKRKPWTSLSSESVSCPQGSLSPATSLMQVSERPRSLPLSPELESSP
# UniProt Q5XKK7: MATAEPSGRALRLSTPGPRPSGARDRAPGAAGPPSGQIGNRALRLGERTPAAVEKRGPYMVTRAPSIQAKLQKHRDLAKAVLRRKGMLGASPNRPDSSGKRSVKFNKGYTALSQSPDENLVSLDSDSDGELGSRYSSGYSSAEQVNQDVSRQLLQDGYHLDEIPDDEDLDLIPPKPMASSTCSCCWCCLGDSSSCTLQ
# UniProt Q6PI26: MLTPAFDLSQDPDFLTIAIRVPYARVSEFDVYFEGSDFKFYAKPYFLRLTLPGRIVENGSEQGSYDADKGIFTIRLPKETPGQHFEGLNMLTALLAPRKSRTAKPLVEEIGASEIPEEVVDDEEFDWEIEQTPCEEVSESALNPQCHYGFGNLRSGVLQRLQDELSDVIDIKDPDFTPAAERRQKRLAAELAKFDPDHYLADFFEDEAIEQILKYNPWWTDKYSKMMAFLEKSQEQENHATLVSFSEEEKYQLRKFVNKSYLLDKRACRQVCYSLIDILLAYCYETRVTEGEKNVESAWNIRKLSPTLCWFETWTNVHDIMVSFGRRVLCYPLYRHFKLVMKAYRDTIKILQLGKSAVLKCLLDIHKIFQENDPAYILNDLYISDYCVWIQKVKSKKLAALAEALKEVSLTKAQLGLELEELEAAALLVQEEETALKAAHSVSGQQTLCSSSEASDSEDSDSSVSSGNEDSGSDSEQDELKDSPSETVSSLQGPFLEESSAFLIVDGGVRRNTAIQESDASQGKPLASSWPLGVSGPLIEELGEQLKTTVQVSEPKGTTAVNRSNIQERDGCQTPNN
# UniProt Q6PJP8: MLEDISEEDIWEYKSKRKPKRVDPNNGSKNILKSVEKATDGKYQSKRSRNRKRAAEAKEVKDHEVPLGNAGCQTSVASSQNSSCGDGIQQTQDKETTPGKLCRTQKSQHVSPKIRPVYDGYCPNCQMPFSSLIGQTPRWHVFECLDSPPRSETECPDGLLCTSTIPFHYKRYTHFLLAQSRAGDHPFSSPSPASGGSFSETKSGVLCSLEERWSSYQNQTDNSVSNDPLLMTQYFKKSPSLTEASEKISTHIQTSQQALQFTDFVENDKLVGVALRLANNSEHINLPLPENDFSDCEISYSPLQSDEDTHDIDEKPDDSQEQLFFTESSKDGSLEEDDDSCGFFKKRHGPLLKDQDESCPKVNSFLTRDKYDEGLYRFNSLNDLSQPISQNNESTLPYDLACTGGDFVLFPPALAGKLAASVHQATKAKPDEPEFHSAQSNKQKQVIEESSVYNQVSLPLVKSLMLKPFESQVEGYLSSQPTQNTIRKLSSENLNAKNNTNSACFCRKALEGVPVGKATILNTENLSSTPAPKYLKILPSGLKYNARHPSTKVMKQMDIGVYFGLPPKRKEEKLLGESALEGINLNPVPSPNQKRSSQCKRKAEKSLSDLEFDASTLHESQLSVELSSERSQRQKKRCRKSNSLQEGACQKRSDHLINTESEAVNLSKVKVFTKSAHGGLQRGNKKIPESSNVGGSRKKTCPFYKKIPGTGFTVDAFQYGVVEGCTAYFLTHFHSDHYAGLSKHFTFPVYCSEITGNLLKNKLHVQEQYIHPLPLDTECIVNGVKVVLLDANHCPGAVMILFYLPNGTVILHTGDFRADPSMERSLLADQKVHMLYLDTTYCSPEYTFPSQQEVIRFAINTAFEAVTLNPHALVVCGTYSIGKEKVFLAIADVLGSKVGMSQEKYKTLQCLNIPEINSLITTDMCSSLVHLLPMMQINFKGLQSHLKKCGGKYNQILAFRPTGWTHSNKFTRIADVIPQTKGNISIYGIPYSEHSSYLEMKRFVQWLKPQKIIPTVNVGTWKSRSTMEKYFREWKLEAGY
# UniProt Q5VTU8: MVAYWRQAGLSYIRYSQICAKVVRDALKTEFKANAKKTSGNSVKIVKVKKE
# Some of the results follow. Small differences around the control level are noise.
# Compound: Cc1nc(Nc2ncc(C(=O)Nc3c(C)cccc3Cl)s2)cc(N2CCN(CCO)CC2)n1 [dasatinib]
# Assay: log2 fold change of tryptic peptide abundance, ligand vs vehicle (limited proteolysis) (log2 ratio); higher = more trypsin-susceptible (destabilized)
# Conditions: ligand concentration: 5 uM; sample: K562 cleared lysate
row,Target,log2 fold change
1,"FBXO42 (peptide sequence: RGSLPDQK, peptide start residue: 486) (UniProt Q6P3S6)",-0.112
2,"MTHFD1L (peptide sequence: SRFQFLYDVQVPIVDKIR, peptide start residue: 853) (UniProt Q6UB35)",-0.272
3,"PRPF40B (peptide sequence: FYVEELK, peptide start residue: 546) (UniProt Q6NWY9)",-0.315
4,"UniProt Q6DT37 (peptide sequence: GAFGEVTVVR, peptide start residue: 80)",-0.41
5,"ANKRD12 (peptide sequence: SSFVSDNSLNR, peptide start residue: 1178) (UniProt Q6UB98)",0.387
6,"FAM219B (peptide sequence: DRAPGAAGPPSGQIGNR, peptide start residue: 25) (UniProt Q5XKK7)",0.232
7,"SHQ1 (peptide sequence: YNPWWTDKYSK, peptide start residue: 215) (UniProt Q6PI26)",0.284
8,"UniProt Q6PJP8 (peptide sequence: SGVLCSLEER, peptide start residue: 203)",0.256
9,"UniProt Q5VTU8 (peptide sequence: YSQICAK, peptide start residue: 15)",0.0211

# In a second layout: entries from further up
row	Target	log2 fold change
7	SHQ1 (peptide sequence: YNPWWTDKYSK, peptide start residue: 215) (UniProt Q6PI26)	0.284
8	UniProt Q6PJP8 (peptide sequence: SGVLCSLEER, peptide start residue: 203)	0.256
